In PMC3487726:
No constants are given. Whether binding was seen depends on the method and setting. In cells and extracts the contact can be indirect. Some entries that bind do so weakly or less than the wild type.

By UniProt entry, the sequences of proteins in these tests, tags left out.
UniProt Q9WVE0: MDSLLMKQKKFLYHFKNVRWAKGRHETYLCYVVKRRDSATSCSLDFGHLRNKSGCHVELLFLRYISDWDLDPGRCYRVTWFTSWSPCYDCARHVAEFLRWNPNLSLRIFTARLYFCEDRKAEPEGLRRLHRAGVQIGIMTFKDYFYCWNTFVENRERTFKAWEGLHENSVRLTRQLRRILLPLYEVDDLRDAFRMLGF
UniProt Q9UN81: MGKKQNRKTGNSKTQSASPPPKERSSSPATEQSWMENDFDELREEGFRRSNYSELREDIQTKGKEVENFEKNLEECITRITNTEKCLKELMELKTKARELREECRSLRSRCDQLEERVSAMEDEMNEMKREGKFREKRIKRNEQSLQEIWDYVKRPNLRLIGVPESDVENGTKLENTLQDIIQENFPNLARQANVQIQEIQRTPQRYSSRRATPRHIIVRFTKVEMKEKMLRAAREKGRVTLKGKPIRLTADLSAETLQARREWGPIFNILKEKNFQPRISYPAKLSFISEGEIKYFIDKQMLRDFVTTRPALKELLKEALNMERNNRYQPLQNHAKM

Target: Flag-AID (mouse wild-type activation-induced cytidine deaminase with N-terminal Flag-tag) (mouse) (UniProt Q9WVE0)
Assay: co-IP; anti-Flag immunoprecipitation (protein G agarose) from lysates of Phoenix cells transfected with Flag-AID or Flag-GFP; cells lysed in the presence of RNase inhibitors; Western blot with anti-ORF1 and anti-AID

“LINE-1 (L1) open reading frame 1 (ORF1) protein, endogenous human (from UniProt Q9UN81 1-338)” was tested, and the binding was “binds”.
